Measured values taken from PubChem BioAssay AID1307 (SRMLSC, 2008).
The whole screen tested about 1,200 compounds, of which fewer than 10 were called active.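 Rule for the calls: active = inhibition reaching a set limit at one or more tested concentrations; inactive = inhibition under that limit at every dose.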 The list shows a part of the results. Measured potencies and affinities stand elsewhere.

Test: yeast RAM network inhibitors, dose response, S. cerevisiae (AID 1307);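 note: 0% = DMSO vehicle wells and 100% = 10 µM 1-NA-PP1 control; higher inhibition means more yeast growth since RAM block rescues cells from 5-FOA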
Conditions: S. cerevisiae RAM network URA3 reporter, 5-FOA growth OD615, hits give high values, yeast express analog-sensitive mutant Cbk1 kinase; at 100 µM unless noted

Max inhibition, inactive:
COc1ccc(-c2nnc(SC(C)C(=O)Nc3cccc(Cl)c3)o2)cc1 (stereo unspecified) 1.74% [at 25 µM]
CO/N=C/C(=N\Nc1ccc(OC)cc1)C(=O)c1ccc(OC)cc1 3.18%
CCOc1ccc2nc(SCCNS(=O)(=O)c3ccccc3)sc2c1 2.88% [at 50 µM]
O=C(OC(c1ccc(NS(=O)(=O)c2ccccc2)cc1)(C(F)(F)F)C(F)(F)F)c1ccccc1 2.02% [at 0.196 µM]
COc1ccc(NC(=O)c2sccc2SCc2cccc(C(F)(F)F)c2)cc1 2.59%
O=C(NCCn1cc(SCc2ccc(F)cc2)c2ccccc21)c1ccccc1F 1.78% [at 1.563 µM]
N#Cc1nc(COc2ccccc2)oc1N1CCN(c2cccc(Cl)c2)CC1 3.36% [at 50 µM]
O=C(/C=C/c1cccc([N+](=O)[O-])c1)NCCSCc1cccc(Cl)c1 1.76%
COc1ccc(S(=O)(=O)NCCSCc2cccc(C)c2)cc1Br 1.08% [at 50 µM]
COc1ccc(-c2ccc(-c3noc(C(C)C)n3)c(OC)n2)cc1 3.31%
Cc1c(NC(=S)NC(=O)Cc2ccccc2)cccc1C(=O)O 2.43% [at 0.196 µM]
CCN(CC)S(=O)(=O)c1cccc(-c2nnc(SCCCC(=O)c3ccc(F)cc3)o2)c1 1.47% [at 0.782 µM]
CCOC(=O)c1ccc(COC(=O)c2ccc3c(c2)-c2ccccc2C3=O)cc1 5.23% [at 25 µM]
Cc1ccc(S(=O)(=O)c2c(C)cc(C)nc2Oc2cccc(C(F)(F)F)c2)cc1 2.36%
CCOC(=O)C(C)(C)Sc1nc2c(cnn2-c2ccc(Cl)cc2)c(=O)[nH]1 4.04%
CC(C)OC(=O)CC(=O)CSc1nc(-c2ccc(F)cc2)cc(-c2ccccc2)c1C#N 4.57%
C/C(=N\NC(=S)NCc1ccccc1)c1ccc(C(C)(C)C)cc1 4.82%
O=C(COc1ccc2c(c1)C(=O)CC1(CCCCC1)O2)NCc1ccccc1 5.43%
COC(=O)c1ccc(Cl)cc1NC(=O)/C=C/c1ccc(C)o1 4.37% [at 12.5 µM]
COc1ccc(N(C)S(=O)(=O)c2cccc(C(=O)NCC3CCCCC3)c2)cc1 2.31% [at 1.563 µM]
COc1ccc(Oc2ccc(/C=C/C(=O)c3cccc(OC)c3)cc2[N+](=O)[O-])cc1 2.94% [at 12.5 µM]
Cc1ccc(-c2ccc(C(=O)NCc3ccccc3)o2)c2ccccc12 3.65%
CCOC(=O)c1cnc(-c2ccccc2)nc1Oc1ccc(Cl)cc1 3.29%
Fc1ccc(-n2c(Cc3ccccc3)nnc2SCc2nc(-c3ccc(Cl)cc3)no2)cc1 1.4% [at 25 µM]
O=C(CSc1nc(-c2ccccc2)cs1)Nc1cccc([N+](=O)[O-])c1 4.65% [at 25 µM]
CCCn1c(=O)c(C(=O)Nc2ccccc2C(=O)OC)c(O)c2ccccc21 2.56% [at 1.563 µM]
CC(NC(=O)COC(=O)/C(=C/c1cccs1)c1cccs1)c1ccccc1 (stereo unspecified) 3.34% [at 1.563 µM]
COc1ccccc1-c1ccc(/C=C2/C=C(CC(C)C)OC2=O)o1 4.92%
O=C(CNS(=O)(=O)c1ccc2ccccc2c1)OCc1csc(-c2ccccc2)n1 4.7% [at 0.782 µM]
CCCOc1ccc(-c2nn(-c3ccccc3)cc2/C=C2\SC(N)=NC2=O)cc1C 16.7%
CSc1ccc(Cl)c(C(=O)NCCOc2cc(C)ccc2C(C)C)c1 2.43% [at 50 µM]
Cc1ccc(NC(=O)c2ccccc2F)cc1S(=O)(=O)N1CCCCCC1 0.96% [at 3.125 µM]
CC(C)N(Cc1nc(-c2ccc(Cl)cc2)no1)C(=O)/C=C/c1ccccc1 2.58% [at 6.25 µM]
CCOC(=O)C1CCN(S(=O)(=O)C(F)(F)c2nc3ccccc3s2)CC1 2.1% [at 0.391 µM]
N#Cc1nc(COc2cccc(Cl)c2)oc1N1CCN(c2ccccc2)CC1 4.45%
O=c1c(-c2nnc(SCc3ccc(Cl)cc3Cl)o2)cccn1Cc1ccccc1 1.93% [at 12.5 µM]
Cc1ccc(CSc2nnc(-c3ccc4c(c3)OCO4)o2)cc1 3.72% [at 1.563 µM]
CCN=C1S/C(=C\c2cc(OCC)c(O)cc2Br)C(=O)N1CC 11.8%
Cc1ccc(N=C(NOCc2ccc(Cl)cc2Cl)c2nonc2N)c(C)c1 5.27%
CC1CCc2c(sc3nc(CSc4n[nH]c(N)n4)[nH]c(=O)c23)C1 (stereo unspecified) 5.55% [at 0.782 µM]
Cc1ccc(C(=O)O/N=C\c2ccc(N3CCCCC3)c([N+](=O)[O-])c2)cc1 2.11%
COc1ccc(C2CC(c3ccccc3)=NN2c2ccc(/C=N/NC(=O)c3ccncc3)cc2)cc1 (stereo unspecified) 9.95%
O=C(OCC#CCSc1nnc(-c2ccc(Br)cc2)o1)c1cccs1 3.16% [at 12.5 µM]
Cc1ccc(-n2ncc3c(SCc4ccccc4)ncnc32)cc1 4.44% [at 50 µM]
CCC(C)N1C(=O)/C(=C/c2c(NCCCOC(C)C)nc3c(C)cccn3c2=O)SC1=S (stereo unspecified) 2.83%
Cc1cccc(C)c1OC1(c2ccccc2)OC(=O)c2ccccc21 (stereo unspecified) 2.48%
CCCOC(=O)c1ccc(Oc2c(-c3ccc(OCC)cc3O)n[nH]c2C)cc1 6.49%
CCOC(=O)CCCSc1nnc(CCCCCN2C(=O)c3cccc4cccc(c34)C2=O)o1 1.53% [at 0.391 µM]
O=C(C1CC1)N1CCc2cc(S(=O)(=O)NCCC3=CCCCC3)ccc21 2.7% [at 0.782 µM]
Cc1cc(C(=O)CCl)c(C)n1CCc1ccc(Cl)cc1 5.29% [at 50 µM]
COc1ccc(Cc2nc(-c3ccc(-n4cccc4)cc3)no2)cc1OC 5.67%

Part of the list above in order of formula weight, high to low:
Max inhibition, inactive:
CCOC(=O)CCCSc1nnc(CCCCCN2C(=O)c3cccc4cccc(c34)C2=O)o1 1.53% [at 0.391 µM]
Fc1ccc(-n2c(Cc3ccccc3)nnc2SCc2nc(-c3ccc(Cl)cc3)no2)cc1 1.4% [at 25 µM]
CC1CCc2c(sc3nc(CSc4n[nH]c(N)n4)[nH]c(=O)c23)C1 (stereo unspecified) 5.55% [at 0.782 µM]
